The supplement of paper PMC6411743
± gives the standard deviation of the averaged measurements. The list shows a part of the results, in another mix than the full data.

By UniProt entry, the sequences of proteins in these tests, tags left out. Where a name states a change or a piece, a line headed by the entry shows the natural chain unless it says otherwise.
UniProt Q9P2K5: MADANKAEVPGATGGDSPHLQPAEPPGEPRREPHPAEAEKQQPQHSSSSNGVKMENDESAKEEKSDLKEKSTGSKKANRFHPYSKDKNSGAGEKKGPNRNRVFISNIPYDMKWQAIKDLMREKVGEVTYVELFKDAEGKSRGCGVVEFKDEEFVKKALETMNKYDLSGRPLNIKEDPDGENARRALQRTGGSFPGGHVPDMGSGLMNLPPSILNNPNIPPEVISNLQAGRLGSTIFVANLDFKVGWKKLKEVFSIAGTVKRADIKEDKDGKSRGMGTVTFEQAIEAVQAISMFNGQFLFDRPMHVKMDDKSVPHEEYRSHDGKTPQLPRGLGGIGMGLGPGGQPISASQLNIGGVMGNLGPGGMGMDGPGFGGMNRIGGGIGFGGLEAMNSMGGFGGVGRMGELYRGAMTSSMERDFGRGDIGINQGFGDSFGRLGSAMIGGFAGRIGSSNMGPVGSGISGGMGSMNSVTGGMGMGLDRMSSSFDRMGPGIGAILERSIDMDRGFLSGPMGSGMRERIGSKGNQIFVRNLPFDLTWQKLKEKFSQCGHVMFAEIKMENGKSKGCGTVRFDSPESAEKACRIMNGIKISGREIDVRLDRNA
UniProt Q9Y4K4: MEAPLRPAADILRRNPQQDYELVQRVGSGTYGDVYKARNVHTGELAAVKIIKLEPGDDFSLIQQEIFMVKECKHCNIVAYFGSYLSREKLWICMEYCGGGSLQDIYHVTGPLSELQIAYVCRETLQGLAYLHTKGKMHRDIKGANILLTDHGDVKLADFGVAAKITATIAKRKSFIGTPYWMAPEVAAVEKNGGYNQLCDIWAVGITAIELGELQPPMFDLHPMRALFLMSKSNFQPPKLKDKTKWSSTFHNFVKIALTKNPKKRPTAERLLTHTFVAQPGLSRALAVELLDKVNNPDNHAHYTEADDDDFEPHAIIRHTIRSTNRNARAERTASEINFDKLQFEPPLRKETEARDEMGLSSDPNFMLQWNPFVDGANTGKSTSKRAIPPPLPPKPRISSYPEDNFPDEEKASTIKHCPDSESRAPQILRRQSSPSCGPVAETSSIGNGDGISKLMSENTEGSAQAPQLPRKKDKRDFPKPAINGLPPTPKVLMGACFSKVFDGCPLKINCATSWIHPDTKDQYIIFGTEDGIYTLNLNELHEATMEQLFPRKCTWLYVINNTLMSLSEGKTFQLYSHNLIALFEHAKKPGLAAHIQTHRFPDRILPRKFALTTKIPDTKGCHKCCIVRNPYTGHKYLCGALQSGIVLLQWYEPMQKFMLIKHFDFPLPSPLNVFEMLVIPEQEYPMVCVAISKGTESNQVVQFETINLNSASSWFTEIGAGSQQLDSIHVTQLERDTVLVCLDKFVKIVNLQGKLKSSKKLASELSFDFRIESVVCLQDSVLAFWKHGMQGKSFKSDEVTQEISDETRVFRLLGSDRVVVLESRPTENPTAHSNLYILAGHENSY
UniProt Q7Z478: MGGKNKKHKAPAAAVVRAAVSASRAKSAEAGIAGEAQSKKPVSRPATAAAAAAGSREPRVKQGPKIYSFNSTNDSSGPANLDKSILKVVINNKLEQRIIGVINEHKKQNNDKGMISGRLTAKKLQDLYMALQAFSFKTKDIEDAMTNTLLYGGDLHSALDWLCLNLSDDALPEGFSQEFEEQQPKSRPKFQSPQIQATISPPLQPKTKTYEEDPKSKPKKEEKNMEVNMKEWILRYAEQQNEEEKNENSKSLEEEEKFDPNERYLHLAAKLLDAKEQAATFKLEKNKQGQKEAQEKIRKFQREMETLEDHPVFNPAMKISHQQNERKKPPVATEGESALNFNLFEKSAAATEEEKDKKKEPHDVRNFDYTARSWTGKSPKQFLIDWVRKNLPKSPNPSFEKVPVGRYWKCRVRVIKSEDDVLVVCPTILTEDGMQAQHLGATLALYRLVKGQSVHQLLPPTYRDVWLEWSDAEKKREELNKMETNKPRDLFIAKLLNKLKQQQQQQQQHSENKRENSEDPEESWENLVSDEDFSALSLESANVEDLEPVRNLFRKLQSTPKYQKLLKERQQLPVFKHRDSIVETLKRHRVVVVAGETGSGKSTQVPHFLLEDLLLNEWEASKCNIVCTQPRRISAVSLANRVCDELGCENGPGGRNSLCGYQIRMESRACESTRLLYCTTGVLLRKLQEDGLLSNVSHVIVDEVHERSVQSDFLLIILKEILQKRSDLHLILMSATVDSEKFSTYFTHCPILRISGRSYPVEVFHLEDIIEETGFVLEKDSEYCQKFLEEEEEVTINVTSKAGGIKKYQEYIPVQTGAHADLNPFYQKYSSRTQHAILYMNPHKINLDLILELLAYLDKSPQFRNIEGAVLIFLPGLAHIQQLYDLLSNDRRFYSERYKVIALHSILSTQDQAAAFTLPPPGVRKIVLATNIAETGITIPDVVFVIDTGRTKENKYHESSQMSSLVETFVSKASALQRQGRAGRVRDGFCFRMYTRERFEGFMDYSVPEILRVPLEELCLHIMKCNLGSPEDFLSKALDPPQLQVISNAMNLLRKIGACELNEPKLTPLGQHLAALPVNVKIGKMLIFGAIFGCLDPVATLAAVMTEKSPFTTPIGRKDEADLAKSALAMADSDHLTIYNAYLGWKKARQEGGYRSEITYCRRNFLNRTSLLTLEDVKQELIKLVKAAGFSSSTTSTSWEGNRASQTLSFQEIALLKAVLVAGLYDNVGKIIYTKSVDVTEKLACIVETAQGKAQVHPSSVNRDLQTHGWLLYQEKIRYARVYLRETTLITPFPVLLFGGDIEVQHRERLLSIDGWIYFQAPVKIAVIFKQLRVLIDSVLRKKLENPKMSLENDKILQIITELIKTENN
UniProt Q7Z739: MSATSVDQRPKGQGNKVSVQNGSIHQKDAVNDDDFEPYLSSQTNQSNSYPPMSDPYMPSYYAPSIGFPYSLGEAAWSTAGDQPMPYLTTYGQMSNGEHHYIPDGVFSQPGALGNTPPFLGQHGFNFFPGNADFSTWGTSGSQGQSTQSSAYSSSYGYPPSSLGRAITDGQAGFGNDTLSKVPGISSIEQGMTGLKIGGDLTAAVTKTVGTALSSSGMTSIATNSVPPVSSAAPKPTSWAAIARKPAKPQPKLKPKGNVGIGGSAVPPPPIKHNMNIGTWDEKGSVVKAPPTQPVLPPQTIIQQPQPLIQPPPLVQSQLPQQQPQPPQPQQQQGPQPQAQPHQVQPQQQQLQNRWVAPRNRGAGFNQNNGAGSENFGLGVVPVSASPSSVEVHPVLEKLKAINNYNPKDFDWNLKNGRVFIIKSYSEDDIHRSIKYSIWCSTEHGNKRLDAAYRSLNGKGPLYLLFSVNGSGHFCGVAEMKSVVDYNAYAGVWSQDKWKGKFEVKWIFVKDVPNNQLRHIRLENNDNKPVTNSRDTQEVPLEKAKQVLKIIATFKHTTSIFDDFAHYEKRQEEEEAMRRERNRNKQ
UniProt E9PIB1: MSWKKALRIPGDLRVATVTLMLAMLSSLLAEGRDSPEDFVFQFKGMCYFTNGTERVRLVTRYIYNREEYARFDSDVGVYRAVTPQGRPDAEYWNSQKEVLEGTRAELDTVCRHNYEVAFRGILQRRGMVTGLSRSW
UniProt O60613, whole entry: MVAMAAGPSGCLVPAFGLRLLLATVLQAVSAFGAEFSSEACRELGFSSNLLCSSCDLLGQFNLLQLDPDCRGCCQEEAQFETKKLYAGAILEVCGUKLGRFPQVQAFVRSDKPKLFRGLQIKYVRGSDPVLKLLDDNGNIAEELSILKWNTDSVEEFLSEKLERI
UniProt P30042, whole entry, looked up: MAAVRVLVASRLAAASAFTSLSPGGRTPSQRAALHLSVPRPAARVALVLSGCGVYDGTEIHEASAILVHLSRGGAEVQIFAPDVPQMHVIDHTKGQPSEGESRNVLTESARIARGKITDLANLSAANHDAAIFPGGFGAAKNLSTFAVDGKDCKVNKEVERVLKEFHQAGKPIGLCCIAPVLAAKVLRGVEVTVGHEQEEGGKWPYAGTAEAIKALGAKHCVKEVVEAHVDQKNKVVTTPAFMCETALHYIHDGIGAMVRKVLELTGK
UniProt Q99501: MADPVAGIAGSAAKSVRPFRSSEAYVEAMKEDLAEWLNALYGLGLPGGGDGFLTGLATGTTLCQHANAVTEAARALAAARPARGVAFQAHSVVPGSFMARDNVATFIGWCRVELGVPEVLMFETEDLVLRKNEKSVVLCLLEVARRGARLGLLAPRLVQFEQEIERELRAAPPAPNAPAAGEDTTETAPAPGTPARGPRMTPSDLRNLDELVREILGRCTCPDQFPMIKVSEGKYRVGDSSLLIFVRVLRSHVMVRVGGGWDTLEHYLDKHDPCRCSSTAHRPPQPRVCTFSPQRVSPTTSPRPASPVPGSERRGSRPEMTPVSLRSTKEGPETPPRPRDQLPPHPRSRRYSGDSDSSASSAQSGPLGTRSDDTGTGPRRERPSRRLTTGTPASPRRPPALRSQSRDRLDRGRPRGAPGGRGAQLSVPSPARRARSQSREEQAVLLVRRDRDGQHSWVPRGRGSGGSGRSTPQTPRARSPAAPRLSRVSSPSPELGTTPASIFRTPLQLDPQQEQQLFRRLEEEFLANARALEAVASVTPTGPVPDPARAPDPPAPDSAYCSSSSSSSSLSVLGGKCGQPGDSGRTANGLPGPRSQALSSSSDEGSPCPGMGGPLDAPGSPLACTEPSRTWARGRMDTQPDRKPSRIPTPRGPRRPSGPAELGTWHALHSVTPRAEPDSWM
UniProt J3QR44, whole entry, looked up: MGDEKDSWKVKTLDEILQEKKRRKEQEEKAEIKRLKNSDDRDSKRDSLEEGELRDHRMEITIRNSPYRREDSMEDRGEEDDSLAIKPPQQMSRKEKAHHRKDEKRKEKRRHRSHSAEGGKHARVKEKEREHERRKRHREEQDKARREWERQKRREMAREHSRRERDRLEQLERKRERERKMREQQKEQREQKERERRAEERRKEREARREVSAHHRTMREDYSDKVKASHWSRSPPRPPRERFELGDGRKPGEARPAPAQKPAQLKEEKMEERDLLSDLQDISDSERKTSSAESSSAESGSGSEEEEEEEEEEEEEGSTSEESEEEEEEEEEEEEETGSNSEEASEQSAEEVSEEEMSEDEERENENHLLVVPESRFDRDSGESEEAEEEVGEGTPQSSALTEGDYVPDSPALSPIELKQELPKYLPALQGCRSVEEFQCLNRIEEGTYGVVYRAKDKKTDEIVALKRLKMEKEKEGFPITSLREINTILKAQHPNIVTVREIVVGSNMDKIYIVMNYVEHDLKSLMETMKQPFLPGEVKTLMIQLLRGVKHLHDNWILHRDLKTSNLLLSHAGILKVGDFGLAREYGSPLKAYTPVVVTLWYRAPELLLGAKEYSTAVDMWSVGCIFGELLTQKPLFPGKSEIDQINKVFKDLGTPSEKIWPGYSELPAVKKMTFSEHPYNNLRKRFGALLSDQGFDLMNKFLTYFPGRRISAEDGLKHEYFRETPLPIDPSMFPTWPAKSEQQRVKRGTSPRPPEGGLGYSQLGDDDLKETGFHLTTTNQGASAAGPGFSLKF
UniProt Q6IAN0: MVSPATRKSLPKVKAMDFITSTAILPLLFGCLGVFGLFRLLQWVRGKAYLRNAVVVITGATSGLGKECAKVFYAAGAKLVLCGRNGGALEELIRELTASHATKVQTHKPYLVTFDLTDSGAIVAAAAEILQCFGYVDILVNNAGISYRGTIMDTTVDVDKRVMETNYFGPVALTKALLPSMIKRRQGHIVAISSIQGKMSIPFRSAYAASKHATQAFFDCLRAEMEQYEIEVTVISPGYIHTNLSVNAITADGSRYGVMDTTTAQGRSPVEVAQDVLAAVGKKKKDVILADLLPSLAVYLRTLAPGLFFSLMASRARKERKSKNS
UniProt Q9BSQ5: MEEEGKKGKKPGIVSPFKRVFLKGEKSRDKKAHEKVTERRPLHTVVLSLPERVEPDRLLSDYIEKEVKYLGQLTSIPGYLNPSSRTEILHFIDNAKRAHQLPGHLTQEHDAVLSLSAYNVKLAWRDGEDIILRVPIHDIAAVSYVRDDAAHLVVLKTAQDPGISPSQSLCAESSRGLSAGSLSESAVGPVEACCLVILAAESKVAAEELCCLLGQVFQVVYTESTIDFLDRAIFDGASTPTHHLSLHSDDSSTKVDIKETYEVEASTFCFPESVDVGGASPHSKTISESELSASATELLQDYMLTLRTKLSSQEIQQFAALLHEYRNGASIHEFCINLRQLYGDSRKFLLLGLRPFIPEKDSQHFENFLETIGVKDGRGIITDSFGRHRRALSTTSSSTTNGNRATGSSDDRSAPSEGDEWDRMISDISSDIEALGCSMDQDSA
UniProt P28062: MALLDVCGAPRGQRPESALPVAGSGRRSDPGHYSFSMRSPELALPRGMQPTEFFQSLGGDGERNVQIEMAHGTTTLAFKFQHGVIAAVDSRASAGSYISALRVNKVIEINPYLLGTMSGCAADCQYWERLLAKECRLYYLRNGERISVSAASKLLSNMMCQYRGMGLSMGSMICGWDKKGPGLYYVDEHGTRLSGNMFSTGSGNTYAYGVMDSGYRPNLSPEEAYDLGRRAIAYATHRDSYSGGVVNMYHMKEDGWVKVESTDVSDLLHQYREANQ

Compound: Nc1ncnc2c1ncn2[C@@H]1O[C@H](COP(=O)(O)OP(=O)(O)NP(=O)(O)O)[C@@H](O)[C@H]1O [adenylyl imidodiphosphate]
Test: NP40-soluble protein abundance relative to vehicle (solubility fold change) (ratio); higher = more soluble protein in presence of AMP-PNP
Procedure, shortened: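 Crude Jurkat lysate, prepared by Dounce homogenisation, was exposed to eight concentrations from 0.1 to 10 mM for 10 min at room temperature and then 3 min at 37 °C. Solubilisation used 0.8% NP40 with benzonase for 60 min at 4 °C, followed by ultracentrifugation and TMT labelling of the supernatant for LC-MS/MS. After vsn normalisation of intensities, each value is the fold change against the detergent-processed vehicle within each replicate, across three independent experiments.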

Target	NP40-soluble protein abundance (concentration: 1mM)	NP40-soluble protein abundance (concentration: 2mM)	NP40-soluble protein abundance (concentration: 4mM)	NP40-soluble protein abundance (concentration: 6mM)	NP40-soluble protein abundance (concentration: 8mM)	NP40-soluble protein abundance (concentration: 10mM)
A0A0C4DFZ2|P15289 (UniProt P15289)	1.02 ± 0.02	1.03 ± 0.037	1.04 ± 0.024	1.06 ± 0.023	1.05 ± 0.021	1.08 ± 0.048
A0A0C4DG17|C9J9K3 and related entries (UniProt P08865)	1.03 ± 0.05	0.968 ± 0.042	0.975 ± 0.039	0.947 ± 0.04	0.941 ± 0.05	0.952 ± 0.057
A0A0A0MRB7|P15923-2|X6REB3 (UniProt P15923)	1.014 ± 0.0025	1.06 ± 0.085	1.02 ± 0.033	1 ± 0.014	0.962 ± 0.02	0.974 ± 0.041
A0A0A0MR39|Q9P2K5-3|A0A0A0MQW0 (UniProt Q9P2K5)	1.04 ± 0.024	1.11 ± 0.036	1.123 ± 0.0095	1.12 ± 0.026	1.16 ± 0.044	1.19 ± 0.026
A0A0A0MQR1|Q9Y4K4 (UniProt Q9Y4K4)	0.985 ± 0.025	0.993 ± 0.04	1 ± 0.02	0.981 ± 0.024	0.964 ± 0.024	0.97 ± 0.019
A0JP02 and related entries (UniProt Q9HAU0)	0.998 ± 0.042	1.01 ± 0.033	1.03 ± 0.039	1.02 ± 0.059	1.03 ± 0.042	1.03 ± 0.011
A0A087WYN9|Q7Z478 (UniProt Q7Z478)	1.31 ± 0.067	1.49 ± 0.079	1.73 ± 0.18	1.9 ± 0.22	2.01 ± 0.24	2.1 ± 0.29
A0A087X0Q1|Q7Z739 (UniProt Q7Z739)	1.04 ± 0.053	1.05 ± 0.059	1.05 ± 0.047	1.03 ± 0.034	1.01 ± 0.044	1.03 ± 0.029
A0A087WWM4|F8WAN9 and related entries (UniProt Q9P2T1)	1.01 ± 0.016	1.03 ± 0.028	1.02 ± 0.013	1.07 ± 0.029	1.07 ± 0.033	1.09 ± 0.015
A0A0G2JIS2|Q96KQ7 and related entries (UniProt Q96KQ7)	1 ± 0.04	1.03 ± 0.026	1.01 ± 0.02	0.992 ± 0.021	0.987 ± 0.028	0.994 ± 0.024
A0A140T9B7|A0A140T9Z6|P01889 and related entries (UniProt P18463+P01889+P30486+P10321+P16188+Q30167+P30504+P30460+P30493+Q29865+Q6DU44+E9PIB1+Q8MH48+P30508+Q5SRN5+Q9TNN7+Q29940+O19617+Q29963+Q31610)	0.989 ± 0.025	1.01 ± 0.032	0.986 ± 0.011	1 ± 0.019	0.985 ± 0.011	1 ± 0.016
A0A0U1RRB3|Q8IYT2 (UniProt Q8IYT2)	1.01 ± 0.032	0.949 ± 0.07	0.968 ± 0.041	0.96 ± 0.019	0.972 ± 0.04	0.926 ± 0.0076
A0A0C4DGS1|P39656 (UniProt P39656)	0.945 ± 0.034	0.833 ± 0.11	0.954 ± 0.059	0.927 ± 0.024	0.959 ± 0.025	0.885 ± 0.061
A0A0A0MT83|P26440 (UniProt P26440)	1.007 ± 0.01	0.947 ± 0.058	1.01 ± 0.033	0.99 ± 0.038	1.01 ± 0.015	0.993 ± 0.02
A0A087X1G7|A0A0B4J1S4|O60613 (UniProt O60613)	1.02 ± 0.022	1.02 ± 0.02	1 ± 0.013	1.01 ± 0.014	1 ± 0.028	1.003 ± 0.0065
A0A0A0MSI2|B3KPJ4 and related entries (UniProt Q8IXK0)	1.03 ± 0.022	1.06 ± 0.052	1.07 ± 0.013	1.15 ± 0.027	1.16 ± 0.021	1.25 ± 0.066
A0A087X0M4|Q9BWU0 (UniProt Q9BWU0)	1.01 ± 0.016	1.01 ± 0.016	1.01 ± 0.017	1.02 ± 0.043	0.986 ± 0.021	1.01 ± 0.019
A0A0C4DGS0|P56556 and related entries (UniProt P56556)	0.97 ± 0.016	0.972 ± 0.044	0.952 ± 0.047	0.996 ± 0.022	1.01 ± 0.068	1.02 ± 0.11
A0A096LPI6|A0A0B4J2D5|P30042 (UniProt P30042)	0.991 ± 0.017	1.05 ± 0.022	0.9549 ± 0.0053	0.988 ± 0.022	0.952 ± 0.031	0.9411 ± 0.007
A0A5E8 and related entries (UniProt Q99501)	1.03 ± 0.011	1.02 ± 0.054	1.02 ± 0.014	1.01 ± 0.02	1.02 ± 0.038	1.03 ± 0.029
A0A0A0MSK4 (UniProt Q86YR5)	1.01 ± 0.041	1.04 ± 0.059	1.03 ± 0.047	0.981 ± 0.0099	1 ± 0.035	1 ± 0.037

Target	NP40-soluble protein abundance (concentration: 1mM)	NP40-soluble protein abundance (concentration: 2mM)	NP40-soluble protein abundance (concentration: 4mM)	NP40-soluble protein abundance (concentration: 6mM)	NP40-soluble protein abundance (concentration: 8mM)	NP40-soluble protein abundance (concentration: 10mM)
A0A087WYU1|A0A087WZW2|Q9Y5X1 (UniProt Q9Y5X1)	1.06 ± 0.027	1.1 ± 0.052	1.11 ± 0.036	1.13 ± 0.041	1.1 ± 0.063	1.15 ± 0.053
A0A0D9SEI3|A0A0D9SEN2|A0A0D9SER5|B7ZVY7 and related entries (UniProt J3QR44+P21127+B7ZVY7)	0.966 ± 0.018	0.942 ± 0.036	0.92 ± 0.022	0.978 ± 0.035	0.94 ± 0.041	0.966 ± 0.035
A0A0A0MTD1|E7EPX0 and related entries (UniProt Q9NUL3)	1.07 ± 0.024	1.12 ± 0.071	1.13 ± 0.032	1.15 ± 0.037	1.161 ± 0.006	1.22 ± 0.051
A0A0B4J1Z1|C9JAB2 and related entries (UniProt Q16629)	1.04 ± 0.073	1.01 ± 0.025	0.986 ± 0.014	0.995 ± 0.02	0.945 ± 0.045	1 ± 0.076
A0AVT1	0.978 ± 0.024	0.919 ± 0.09	0.959 ± 0.025	0.961 ± 0.014	0.949 ± 0.02	0.92 ± 0.023
A0A087X256|Q2M389 (UniProt Q2M389)	0.975 ± 0.015	0.971 ± 0.064	0.995 ± 0.028	0.97 ± 0.034	0.967 ± 0.013	0.943 ± 0.026
A0A0C4DGB9|Q9H2U2 (UniProt Q9H2U2)	1 ± 0.016	1 ± 0.024	0.9893 ± 0.0073	1.02 ± 0.023	1.01 ± 0.029	1.01 ± 0.036
A0A140T9R1|A2ABJ5 and related entries (UniProt O75955)	1.04 ± 0.048	1 ± 0.018	1.06 ± 0.072	0.969 ± 0.065	1.03 ± 0.074	0.968 ± 0.072
A0A140TA86|Q5XKP0 (UniProt Q5XKP0)	0.9908 ± 0.0084	0.971 ± 0.021	0.9312 ± 0.0053	0.968 ± 0.021	0.951 ± 0.019	0.9451 ± 0.0032
A0A087WXS7|O43681 (UniProt O43681)	0.946 ± 0.025	0.913 ± 0.025	0.953 ± 0.027	0.963 ± 0.034	0.961 ± 0.023	0.941 ± 0.045
A0A0C4DGQ8|Q6IAN0 (UniProt Q6IAN0)	0.984 ± 0.036	0.96 ± 0.038	0.969 ± 0.026	1.04 ± 0.024	1.04 ± 0.029	1.02 ± 0.03
A0A0G2JR50|Q86SQ7 and related entries (UniProt Q86SQ7)	1 ± 0.021	1.03 ± 0.047	0.957 ± 0.049	0.935 ± 0.027	0.949 ± 0.024	0.94 ± 0.028
A0A087WZN1|O43837 (UniProt O43837)	0.958 ± 0.032	0.918 ± 0.037	0.938 ± 0.038	0.99 ± 0.061	0.978 ± 0.059	0.961 ± 0.042
A2A274 and related entries (UniProt Q99798)	1.012 ± 0.009	0.982 ± 0.029	1.01 ± 0.03	0.966 ± 0.018	0.987 ± 0.035	0.94 ± 0.019
A0A0A0MT72|Q9BSQ5 and related entries (UniProt Q9BSQ5)	0.981 ± 0.017	0.978 ± 0.034	0.9492 ± 0.0069	0.954 ± 0.016	0.978 ± 0.022	0.96 ± 0.028
A0A0D9SF28|F5GXV7 and related entries (UniProt Q8NFP9)	0.985 ± 0.023	0.958 ± 0.082	0.984 ± 0.083	0.983 ± 0.071	0.976 ± 0.057	0.976 ± 0.062
A0A096LP25|Q2M2I8 and related entries (UniProt Q2M2I8)	1.07 ± 0.02	1.11 ± 0.041	1.11 ± 0.026	1.09 ± 0.024	1.08 ± 0.02	1.11 ± 0.012
SH3PXD2B (UniProt A1X283)	1.02 ± 0.025	1.06 ± 0.057	1.04 ± 0.044	0.988 ± 0.031	0.984 ± 0.042	0.996 ± 0.038
A0A140T998|P28062 and related entries (UniProt X5D2R7+Q5JNW7+P28062)	0.946 ± 0.041	0.899 ± 0.078	0.904 ± 0.08	0.915 ± 0.065	0.934 ± 0.11	0.934 ± 0.13
A0A0A0MSJ9|Q15283 and related entries (UniProt Q15283)	1.02 ± 0.043	0.947 ± 0.1	0.984 ± 0.062	0.962 ± 0.0078	0.962 ± 0.034	0.951 ± 0.041

An excerpt of these results, comma-delimited.
Target,NP40-soluble protein abundance (concentration: 1mM),NP40-soluble protein abundance (concentration: 2mM),NP40-soluble protein abundance (concentration: 4mM),NP40-soluble protein abundance (concentration: 6mM),NP40-soluble protein abundance (concentration: 8mM),NP40-soluble protein abundance (concentration: 10mM)
A0A0A0MR39|Q9P2K5-3|A0A0A0MQW0 (UniProt Q9P2K5),1.04 ± 0.024,1.11 ± 0.036,1.123 ± 0.0095,1.12 ± 0.026,1.16 ± 0.044,1.19 ± 0.026
A0JP02 and related entries (UniProt Q9HAU0),0.998 ± 0.042,1.01 ± 0.033,1.03 ± 0.039,1.02 ± 0.059,1.03 ± 0.042,1.03 ± 0.011
A0A087WYN9|Q7Z478 (UniProt Q7Z478),1.31 ± 0.067,1.49 ± 0.079,1.73 ± 0.18,1.9 ± 0.22,2.01 ± 0.24,2.1 ± 0.29
A0A087X0Q1|Q7Z739 (UniProt Q7Z739),1.04 ± 0.053,1.05 ± 0.059,1.05 ± 0.047,1.03 ± 0.034,1.01 ± 0.044,1.03 ± 0.029
A0A087X1G7|A0A0B4J1S4|O60613 (UniProt O60613),1.02 ± 0.022,1.02 ± 0.02,1 ± 0.013,1.01 ± 0.014,1 ± 0.028,1.003 ± 0.0065
A0A0A0MSI2|B3KPJ4 and related entries (UniProt Q8IXK0),1.03 ± 0.022,1.06 ± 0.052,1.07 ± 0.013,1.15 ± 0.027,1.16 ± 0.021,1.25 ± 0.066
A0A096LPI6|A0A0B4J2D5|P30042 (UniProt P30042),0.991 ± 0.017,1.05 ± 0.022,0.9549 ± 0.0053,0.988 ± 0.022,0.952 ± 0.031,0.9411 ± 0.007
A0A140T9R1|A2ABJ5 and related entries (UniProt O75955),1.04 ± 0.048,1 ± 0.018,1.06 ± 0.072,0.969 ± 0.065,1.03 ± 0.074,0.968 ± 0.072
A2A274 and related entries (UniProt Q99798),1.012 ± 0.009,0.982 ± 0.029,1.01 ± 0.03,0.966 ± 0.018,0.987 ± 0.035,0.94 ± 0.019
A0A0A0MT72|Q9BSQ5 and related entries (UniProt Q9BSQ5),0.981 ± 0.017,0.978 ± 0.034,0.9492 ± 0.0069,0.954 ± 0.016,0.978 ± 0.022,0.96 ± 0.028
A0A140T998|P28062 and related entries (UniProt X5D2R7+Q5JNW7+P28062),0.946 ± 0.041,0.899 ± 0.078,0.904 ± 0.08,0.915 ± 0.065,0.934 ± 0.11,0.934 ± 0.13
